We go through 1 substance from paper PMC9599549.

By UniProt entry, the sequences of proteins in these tests, tags left out.
UniProt Q9UN81: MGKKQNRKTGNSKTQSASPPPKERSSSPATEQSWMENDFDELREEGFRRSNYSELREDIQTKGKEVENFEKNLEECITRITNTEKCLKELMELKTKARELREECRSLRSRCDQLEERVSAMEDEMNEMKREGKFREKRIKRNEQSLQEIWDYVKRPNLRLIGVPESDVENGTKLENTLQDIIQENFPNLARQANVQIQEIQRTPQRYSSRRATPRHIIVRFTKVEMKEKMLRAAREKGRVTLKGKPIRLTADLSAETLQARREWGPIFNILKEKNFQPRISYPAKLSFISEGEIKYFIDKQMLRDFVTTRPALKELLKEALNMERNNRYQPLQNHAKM

This test has as its target T1, TREX1 with an HA tag at its C terminus (vrTREX1-HA) (UniProt Q9NSU2).
T1 sequence: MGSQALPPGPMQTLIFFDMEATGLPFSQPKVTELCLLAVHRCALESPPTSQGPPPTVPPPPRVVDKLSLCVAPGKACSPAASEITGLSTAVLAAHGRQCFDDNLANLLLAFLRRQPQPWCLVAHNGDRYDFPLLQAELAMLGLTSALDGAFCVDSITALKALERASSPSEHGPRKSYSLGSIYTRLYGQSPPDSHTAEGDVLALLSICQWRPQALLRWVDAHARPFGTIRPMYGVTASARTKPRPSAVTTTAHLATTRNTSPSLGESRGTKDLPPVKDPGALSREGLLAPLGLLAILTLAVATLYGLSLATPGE
As to the kind of experiment: co-IP; HEK293T cells transfected with TREX1 (600 ng), Nef (500 ng) and/or ORF1p-expressing vectors (400 ng), harvested at 48 h; lysis in 50 mM Tris-HCl pH 7.5, 150 mM NaCl, 0.5% NP-40; anti-HA magnetic beads overnight; six washes (20 mM Tris-HCl pH 7.5, 100 mM NaCl, 0.1 mM EDTA, 0.05% Tween 20); elution with 50 mM glycine-HCl pH 2.5; Western blot. A general note: In western blotting, separated proteins are transferred to a membrane and probed.

These are yes or no findings as the source states them, for the method shown. In cells and extracts the contact can be indirect. Some entries that bind do so weakly or less than the wild type. Where a sequence is shown, tags or fusion partners need not be part of it.

“LINE-1 open reading frame 1 protein (ORF1p) expressed from an ORF1p-expressing vector that is not named for the co-IP of Fig. 2E (from UniProt Q9UN81 1-338)”: the binding result is recorded as “binds”.
